For 3 substances, binding results are on record in article PMC3848888.

Amino acid sequences for entries named in this document (tags omitted).
UniProt P04618: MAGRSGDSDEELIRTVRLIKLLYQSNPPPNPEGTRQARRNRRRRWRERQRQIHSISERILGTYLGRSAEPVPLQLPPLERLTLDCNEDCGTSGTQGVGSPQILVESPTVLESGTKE

These are yes or no findings as the source states them, for the method shown. In cells and extracts the contact can be indirect. Some binding calls cover weakened binding; strength is not graded here. Where a sequence is shown, tags or fusion partners need not be part of it.

The target in experiment [1] is T1, His TRBP (UniProt Q15633).
T1 sequence: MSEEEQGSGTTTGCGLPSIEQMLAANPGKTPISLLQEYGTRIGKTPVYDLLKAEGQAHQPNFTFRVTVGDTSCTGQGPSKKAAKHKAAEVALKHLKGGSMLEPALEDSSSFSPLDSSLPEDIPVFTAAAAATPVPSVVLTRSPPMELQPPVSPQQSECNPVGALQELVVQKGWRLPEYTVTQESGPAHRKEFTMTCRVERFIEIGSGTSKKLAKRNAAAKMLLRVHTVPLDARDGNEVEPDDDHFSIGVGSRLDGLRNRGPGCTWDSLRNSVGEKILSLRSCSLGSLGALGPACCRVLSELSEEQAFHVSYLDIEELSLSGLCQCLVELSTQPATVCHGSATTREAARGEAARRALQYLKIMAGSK
The experiment is described as follows: co-IP; HEK 293T co-transfected with His TRBP or His PACT and Myc Tat, Myc Rev or their ARM deletion mutants, with and without 30 uM Adox; lysates on Ni-NTA beads, 4°C, 2 hours; blots with anti-His and anti-myc.

Experiment [2] addresses T2, His PACT (UniProt O75569).
T2 sequence: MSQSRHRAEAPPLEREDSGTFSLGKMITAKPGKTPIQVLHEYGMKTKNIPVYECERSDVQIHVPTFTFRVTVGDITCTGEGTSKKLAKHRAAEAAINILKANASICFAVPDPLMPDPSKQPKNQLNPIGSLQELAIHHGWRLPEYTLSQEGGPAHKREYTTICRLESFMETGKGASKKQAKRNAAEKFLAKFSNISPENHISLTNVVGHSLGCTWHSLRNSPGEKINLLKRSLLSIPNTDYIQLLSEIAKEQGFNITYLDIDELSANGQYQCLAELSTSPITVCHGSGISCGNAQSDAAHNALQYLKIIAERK
Described as above.

In experiment [3] the target is T1, His TRBP. The experiment in a line: co-IP; His TRBP or His PACT with Myc Rev or RmGST; cell extracts treated with 50 ug/ml RNase A prior to co-immunoprecipitation (presence and absence compared).
Experiment [4] addresses T2, His PACT. The description is as above.

As to “Myc Rev (HIV-1 Rev, wild type) (from UniProt P04618 1-116)”, the binding result in experiment [1], in experiment [2], in experiment [3] and in experiment [4] was “binds” in each case.
For “Myc Tat (HIV-1 Tat, wild type) (from UniProt P04608 1-86)”, the binding result in experiment [1] and in experiment [2] was “binds” throughout.
Regarding “Myc ∆Tat (ARM deletion mutant of HIV-1 Tat, 48-60 deleted) (from UniProt P04608 1-86)”, the binding result in experiment [1] and in experiment [2] was “binds” in each case.
